“Also recorded” adds a separate entry of the source. Part of at least one peptide drawing is inferred or uncertain, most often the ends. Ends that are not written are not given here.
How the values were obtained:
Cx43 channels [1] = biological target: T1, Cx43 channels (Rattus norvegicus, UniProt P08050); experiment: Single channel activity in Cx43-expressing N2a cell pairs; assay type: cell-based; details: 0.1 mM peptide
T1 construct: in contrast with the results observed for the full-length channel; expressed in transfected cells; host or cells: N2a (neuroblastoma) cells

M257 channels = biological target: T2, M257 channels (Rattus norvegicus, UniProt P08050); experiment: Single channel recordings from N2a cells transfected with M257; assay type: cell-based; details: peptide present; octanol used to uncouple
T2 construct: expressed in transfected cells; host or cells: N2a cells, transient, eGFP-containing IRES plasmid
T2 sequence (P08050 2-257): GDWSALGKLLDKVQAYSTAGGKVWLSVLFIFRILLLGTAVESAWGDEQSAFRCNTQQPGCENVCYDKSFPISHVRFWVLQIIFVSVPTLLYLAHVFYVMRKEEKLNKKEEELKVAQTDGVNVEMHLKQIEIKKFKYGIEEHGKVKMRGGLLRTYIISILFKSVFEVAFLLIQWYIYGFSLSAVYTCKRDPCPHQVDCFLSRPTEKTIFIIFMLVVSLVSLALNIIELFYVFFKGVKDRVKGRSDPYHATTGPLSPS

Cx43CT [2] = biological target: T3, Cx43CT (Rattus norvegicus, UniProt P08050); experiment: Biased (XXXXRXPXXXX) phage display screening against Cx43CT; assay type: binding
T3 construct: GST (N, cleaved yes); made in house; host or cells: E. coli BL-21
Description: A “library” of bacteriophage, displaying ˜[…] of 2.7×10^9 random 12-mer peptides (Ph.D.-12™ Phage display peptide library kit; New England BioLabs Inc.) was utilized. Wells in 24-well plates were coated with 15 μg of recombinant CT and blocked with 5 mg/ml BSA. After removing the unbound viruses by washing with Tris buffered saline containing 0.5% tween-20 (TBS-T), low affinity binders were eluted with a solution of TBS-containing Cx43CT at a concentration of 100 μg/ml. High affinity binders were recovered by overlaying the well with a culture of E. coli, to allow the tightly bound phage to infect the bacteria. This culture was amplified and the virus was precipitated with PEG. The amplified product was used for the subsequent round of panning. All steps were conducted at pH 6.5 unless otherwise indicated.
After three rounds of selection and amplification, the phage recovered from the last round of binding were grown on a lawn of E. coli for plaque purification. Each plaque, representing a single clone, was picked and amplified. The phage were isolated and analyzed by DNA sequencing.
The Ph.D. Peptide Display Cloning System (New England BioLabs Inc.) was used to create a biased phage display library of sequence XXXXRXPXXXX, where X is any amino acid flanking an arginine and a proline with an additional random residue at the center. The randomized peptides were followed by a Gly-Gly-Gly-Ser (SEQ ID NO:2) spacer. The library was cloned into M13 phage. These phage were analyzed for titer and sequence prior to screening for Cx43CT binding as described above.
The RXP motif was not detected in phage that bound to streptavidin. The motif occurred in different positions within the 12-mer peptide, thus preventing proper alignments to determine the frequency of other amino acids at specific positions relative to the RXP. To overcome this limitation and to search for peptides with higher binding affinity (see Example 10), a biased phage display library was generated where the RXP motif was forced to the center of the sequence, flanked at each side by 4 randomized amino acids. Sixty clones containing an insert (out of an estimated 3-4×10^4 total clones in the library) were chosen at random for sequencing prior to exposure of the library to Cx43CT. All inserts coded for an 11-mer peptide with the RXP motif in the appropriate location. In three independent runs, the same library was presented to Cx43CT. The binding step was carried out at pH 6.5 in two of the runs (run 1 and 2) and at pH 7.4 in one additional run (run 3). The total number of phage plaques containing a full coding insert that were recovered after the binding step were 120, 119 and 163 for runs 1, 2 and 3, respectively. […]

Cx43 channels [3] = biological target: T1, Cx43 channels; experiment: Octanol-induced uncoupling, dual whole-cell voltage clamp of Cx43-expressing N2a cell pairs; assay type: cell-based; details: 2 mM octanol; 0.1 mM peptide in pipette; Vj 60 mV
Cx43 channels [4] = biological target: T1, Cx43 channels; experiment: Acidification-induced uncoupling (pipette solution pH 6.2), dual patch clamp; assay type: cell-based
[5] = biological target: T4, M257 (Cx43 truncated at amino acid 257) (Rattus norvegicus, UniProt P08050); experiment: Octanol-induced uncoupling in M257-expressing N2a cell pairs; assay type: cell-based; details: 0.1 mM peptide in pipette, M257-expressing N2a cells, N=8
T4 construct: expressed in transfected cells; host or cells: N2a cells, transient, eGFP-containing IRES plasmid
T4 sequence (P08050 1-257): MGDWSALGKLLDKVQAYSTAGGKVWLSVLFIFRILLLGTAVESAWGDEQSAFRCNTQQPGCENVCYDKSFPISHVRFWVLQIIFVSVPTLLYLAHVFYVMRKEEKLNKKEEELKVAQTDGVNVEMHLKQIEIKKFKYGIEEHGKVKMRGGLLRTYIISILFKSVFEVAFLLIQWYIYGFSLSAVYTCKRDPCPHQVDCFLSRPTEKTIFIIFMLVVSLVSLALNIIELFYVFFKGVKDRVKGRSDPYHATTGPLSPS

Cx43CT [6] = biological target: T3, Cx43CT; experiment: NMR 15N-HSQC resonance shifts of 15N-Cx43CT in presence of peptide; assay type: binding; details: PBS pH 5.8; peptide to Cx43CT about 2.4 mM to 0.8 mM (3:1)
Description: All NMR data were acquired on a Varian INOVA 600-MHz NMR spectrometer using a cryoprobe (MacUra & Ernst, “Elucidation of Cross Relaxation in Liquids by Two-dimensional NMR Spectroscopy,” Mol. Phys. 41:95-117 (1980), which is hereby incorporated by reference in its entirety); the sample temperature was maintained at 7° C. Gradient-enhanced two-dimensional ^1H-^15N HSQC experiments (Kay et al., “Pure Absorption Gradient Enhanced Heteronuclear Single Quantum Correlation Spectroscopy with Improved Sensitivity,” J. Am. Chem. Soc. 114:10663-10665 (1992), which is hereby incorporated by reference in its entirety) were used to observe all backbone amide resonances in ^15N-labeled Cx43CT. Data were acquired with 1024 complex points in t2 and 128 complex points in t1. […] All NMR data were processed using NMRPipe (Delaglio et al., “NMRPipe: A Multidimensional Spectral Processing System Based on UNIX Pipes,” J. Biomol. NMR 6(3):277-293 (1995), which is hereby incorporated by reference in its entirety) and analyzed using NMRView (Sorgen, “How to Solve a Protein Structure by Nuclear Magnetic Resonance The Connexin43 Carboxyl Terminal Domain,” in PRACTICAL METHODS IN CARDIOVASCULAR RESEARCH 948-958 (Stefan Dhein, Friedrich Wilhelm Mohr & Mario Delmar eds., 2005), which is hereby incorporated by reference in its entirety). […]

SDDLRSPQLHNGGGSAVPFYSHSHMVRRKPRNPR-NH2 [RXP-E]
Residual state and open state of the channel (in words) (Cx43 channels [1]; Vj +60 mV): open times were greatly prolonged and the residual state was noticeably absent
Unitary conductance (centre of Gaussian) (Cx43 channels [1]; Vj +60 mV, N=4, n=110): 100.5 pS
Average open time of single channels (Cx43 channels [1]; no uncoupling agents, N=3, n=368): 1.27 s
Single channel behaviour of M257 channels (in words) (M257 channels): rapid and frequent transitions between states were consistently recorded; also recorded: is not seen in M257 channels
Total Frequency (%) (Cx43CT [2]; all three runs, 402 inserts sequenced): 3%
Frequency Run 2(%) (Cx43CT [2]; binding step at pH 6.5, 119 inserts sequenced): 4.2%
Frequency Run 1 (%) (Cx43CT [2]; binding step at pH 6.5, 120 inserts sequenced): 0.8%
Frequency Run 3 (%) (Cx43CT [2]; binding step at pH 7.4, 163 inserts sequenced): 3.7%
Octanol-induced uncoupling (in words) (Cx43 channels [3]): none of the cell pairs exposed to RXP-E uncoupled following octanol; also recorded: partially prevented octanol-induced uncoupling; also recorded: prevented complete uncoupling in all 10 pairs tested
Acidification-induced uncoupling (in words) (Cx43 channels [4]): partially prevented the closure of Cx43 channels; also recorded: partial prevention of acidification-induced uncoupling
Octanol-induced uncoupling in truncated Cx43 (in words) [5]: octanol led to complete uncoupling regardless of the presence of the peptide; also recorded: failed to prevent uncoupling
Shift of Cx43CT resonance peaks (15N-HSQC) (Cx43CT [6]): strongly affected the resonance peaks of residues R376, D378, and D379; also recorded: caused a shift in the position of residues 376, 378 and 379, as well as residues 343-346

— US20090075291A1, “PEPTIDE-BASED REGULATION OF GAP JUNCTIONS” (The Research Foundation of State University of New York, priority 2006, published 2009)
